Assay results as given in PMC7566044.
Results are given in words; binding and its absence hold for the method and conditions named. In cells and extracts the contact can be indirect. Some binding calls cover weakened binding; strength is not graded here.

The chains behind the UniProt entries cited, without tags or fusion partners.
UniProt Q9H4A6: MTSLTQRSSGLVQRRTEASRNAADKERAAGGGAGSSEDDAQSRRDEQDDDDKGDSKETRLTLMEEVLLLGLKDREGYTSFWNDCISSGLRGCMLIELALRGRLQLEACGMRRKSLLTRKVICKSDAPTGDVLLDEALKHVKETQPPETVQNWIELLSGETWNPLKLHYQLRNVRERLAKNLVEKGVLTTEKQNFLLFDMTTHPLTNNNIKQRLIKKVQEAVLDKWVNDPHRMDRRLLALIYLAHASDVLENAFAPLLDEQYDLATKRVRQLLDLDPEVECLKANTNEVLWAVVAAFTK

How the values were obtained:
[1] = target: YFPn-GOLPH3 (Golgi phosphoprotein 3 fused to the YFP N terminal fragment) (UniProt Q9H4A6); assay: split reporter; genome-wide BiFC screen in living HTC75 cells: YFPn-GOLPH3 stable line infected with the pooled YFPc-tagged human ORFeome library (about 18,000 ORFs, MOI about 0.5); YFP positive cells sorted by flow cytometry for four rounds; ORFs amplified by PCR and sequenced
[2] = target: YFPn-GOLPH3 (Golgi phosphoprotein 3 fused to the YFP N terminal fragment) (UniProt Q9H4A6); assay: split reporter; pair-wise BiFC: proteins tagged with YFPn and YFPc stably co-expressed in HTC75 cells, YFP fluorescence by flow cytometry
[3] = target: Flag-tagged STIP1 (human) (UniProt P31948); assay: co-IP; Flag-tagged construct transiently transfected into HEK293T cells, lysed after 48 h in NETN buffer (100 mM NaCl, 0.5% NP-40), precipitated with anti-Flag affinity agarose beads, washed four times, blotted with anti-GOLPH3

binding [1]	binding [2]	binding [3]	Substance
binds	binds		YFPc-tagged stress-inducible protein-1 (STIP1) (from UniProt P31948 1-543)
		binds	endogenous GOLPH3 (from UniProt Q9H4A6 1-298)
